PubChem BioAssay AID493014 (National Center for Advancing Translational Sciences (NCATS), 2011)
Some of the results follow. Shown are side measurements of this screen, not its main read-out; they come without a call. The list favours compounds with an active or inconclusive main result. Words in brackets tell the shape of the fitted curve; partial curves, single points and poor fits give uncertain potencies.

Assay: qHTS Assay to Find Inhibitors of Chronic Active B-Cell Receptor Signaling
Conditions: ABC-DLBCL IkBa-CBG/CBR reporter, luminescence ratio (green luciferase fused to IkBa over red control in TMD8 lymphoma cells), 4 h
Outline: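 TMD8 ABC-DLBCL cells carrying doxycycline-inducible green luciferase fused to IkappaBalpha plus unfused red luciferase were exposed to compounds (up to 46 uM) for 4 hrs at 37C. Activity came from the overlap-corrected green/red luminescence ratio.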

[1] = measured here: CBR red luminescence, cell number
[2] = measured here: IkBa-CBG green luminescence

SMILES | AC50 [1] | AC50 [2]
CCOC(=O)c1c(C)[nH]c(N=Nc2ccc(OC)cc2)c1C | 0.251 µM [rising, partial curve, poor fit] | –
COc1cccc(/C=C/C(=O)OCC(=O)N2CCN(c3ccccc3)CC2)c1 | 13 µM [rising, partial curve] | –
CC(C)CNC(=S)N1CCN(c2nc3ccccc3s2)CC1 | 0.794 µM [rising, full curve] | –
CCOc1ncccc1C(=O)Nc1ccc2c(C)cc(=O)oc2c1 | 5.17 µM [rising, single point] | –
CC1=NN(c2ccccc2)C(=O)/C1=C/c1cn(C)c2ccccc12 | 0.447 µM [falling, full curve, poor fit] | –
O=C(N/N=C/c1cccc2ccccc12)c1cc2ccccc2o1 | 11.2 µM [falling, partial curve, poor fit] | –
COc1ccc(Cc2nc3ccc(C(=O)NCCCSC)cc3o2)cc1OC | 6.31 µM [rising, partial curve, poor fit] | –
O=C1NC2(CCCCC2)C(=O)N1/N=C/c1ccc(O)cc1O | 14.6 µM [falling, partial curve, poor fit] | –
COc1ccccc1-c1c(C)nn2c(N3CCC(C(N)=O)CC3)cc(C)nc12 | 4.11 µM [rising, partial curve, poor fit] | –
O=C(Nc1cccc(Cl)c1)c1ccc2c(c1)SC1=NS(=O)(=O)CCN12 | 1.26 µM [rising, full curve, poor fit] | –
COC(=O)c1ccc(OCC2c3cc(OC)c(OC)cc3CCN2C(=O)Cc2ccc(OC)c(OC)c2)cc1 (stereo not drawn) | 0.708 µM [falling, partial curve, poor fit] | –
CCCCOc1ncnc2c1[nH]c1ccc(OCC)cc12 | 1.41 µM [rising, partial curve] | –
C=CCn1c(CNC(=O)c2ccccc2C)nnc1SCC(=O)NC1CCCC1 | 3.66 µM [rising, full curve] | –
COc1cc(CC(=O)OCC(=O)NCc2cccs2)cc(OC)c1OC | 0.164 µM [rising, full curve, poor fit] | –
Oc1ccc(C2=Nn3c(nnc3-c3ccco3)SC2)cc1O | 8.2 µM [falling, partial curve, poor fit] | –
O=C(Nc1ccc(Cl)cc1)Nc1cccc2nsnc12 | 7.94 µM [falling, partial curve] | –
COc1ncccc1-c1nnn(-c2ccc(Cl)c(Cl)c2)n1 | 0.891 µM [rising, full curve, poor fit] | –
C=CCN1C(=S)CC(c2ccccc2)=Nc2ccccc21 | 35.5 µM [rising, single point] | –
COc1ccc(CCNC(=O)Cn2nc(-c3ccc(Cl)cc3)ccc2=O)cc1OC | 3.16 µM [rising, full curve] | –
CCCc1nc2ccc(NC(=O)NCCC(=O)OCC)cc2c(=O)n1Cc1ccc(Cl)cc1 | 16.4 µM [rising, single point] | –
CCCN1CCC(=NNc2ccc(S(=O)(=O)N(CC)CC)cc2[N+](=O)[O-])CC1 | 2.82 µM [falling, partial curve, poor fit] | –

SMILES | AC50 [1] | AC50 [2]
CCOCc1nnc(NC(=O)c2c(OC)cccc2OC)s1 | 7.31 µM [rising, partial curve, poor fit] | –
Cc1ccc2c(c1)C(=O)c1c(C(=O)O)cccc1-2 | – | 0.794 µM [rising, full curve]
CCCNC(=O)c1ccc(COc2ccc(C(C)(C)C)cc2)o1 | 15.8 µM [falling, single point] | –
COc1ccc(NC(=O)CN2C(=O)CSc3ncccc32)cc1 | 1.12 µM [falling, partial curve, poor fit] | –
CC(=O)c1sc2nsc(SCCN3CCCC3)c2c1N | 17.8 µM [falling, single point] | –
Cc1ccc(/C=C/C(=O)O)cc1S(=O)(=O)N1CCC(Cc2ccccc2)CC1 | 14.1 µM [falling, single point] | –
CN(NC1OC(=O)c2ccccc21)c1ccc(C(F)(F)F)cc1[N+](=O)[O-] (stereo not drawn) | 0.794 µM [rising, partial curve, poor fit] | –
N#CCC(=O)Nc1ccc(C(=O)OCC(=O)NC(=O)NCc2ccco2)cc1 | 20.6 µM [falling, single point] | –
COC(=O)C1=C(C)N(C(C)c2ccccc2)C(=O)C1 (stereo not drawn) | 14.6 µM [falling, partial curve, poor fit] | –
N#C/C(=C\c1ccc(O)c(O)c1)C(=O)NCCc1ccccc1 | 25.9 µM [falling, single point] | –
COc1ccc(C(=O)c2ccc(N(C)C)cc2)c2ccccc12 | 7.31 µM [rising, partial curve] | 9.2 µM [falling, partial curve]
COc1ccc(NC(=O)Nc2nnc(-c3ccco3)s2)cc1 | 6.31 µM [rising, single point] | –
Cc1ccc(OC(F)F)c(NC(=O)Nc2cccc(C(F)(F)F)c2)c1 | 25.9 µM [falling, single point] | 16.4 µM [rising, partial curve, poor fit]
COc1cc2c(cc1OC)C(C)N(S(=O)(=O)c1cnc(Cl)c(Cl)c1)CC2 (stereo not drawn) | 14.1 µM [rising, partial curve, poor fit] | 10 µM [falling, partial curve]
O=C(NCc1nc2ccccc2[nH]1)C1=C[C@@H](c2csc3ccccc23)C[C@@H](OCCCCO)O1 | 11.2 µM [falling, partial curve, poor fit] | –
Cc1ccc(Cl)c(OCCN2CCCC(C)C2)c1 (stereo not drawn) | 6.51 µM [rising, single point] | –
Cc1ccc(-n2nc3ccc(NC(=O)c4ccco4)cc3n2)cc1 | 1.46 µM [rising, partial curve, poor fit] | –
Fc1cccc2sc(Nc3nnc(-c4ccccc4)o3)nc12 | 2.59 µM [falling, partial curve] | 5.8 µM [falling, full curve]
N#CC1(C#N)CC(C=O)=C(N)C1(C#N)CC(=O)C12CC3CC(CC(C3)C1)C2 (stereo not drawn) | 20.6 µM [falling, single point] | –
Cc1cccc(NC(=O)CN(CC2CCCO2)C(=O)c2oc3ccccc3c2C)c1C (stereo not drawn) | 25.9 µM [rising, single point] | –
O=C(COc1ccc2cc(Br)ccc2c1)N1CCOCC1 | 4.61 µM [falling, single point] | –

SMILES | AC50 [1] | AC50 [2]
O=C(COC(=O)c1ccc(NS(=O)(=O)c2cccs2)cc1O)Nc1nc2ccccc2s1 | 15.8 µM [falling, single point] | –
COc1ccc(C(=O)Nc2ccc3nc(C)c(C)nc3c2)cc1 | 3.55 µM [falling, partial curve, poor fit] | –
Nc1c(C(=O)Nc2cccc(C(=O)O)c2)sc2nc3c(cc12)CCCC3 | 15.8 µM [falling, single point] | –
O=c1[nH]c(CCl)nc2cc(-c3ccc(F)cc3)sc12 | 11.2 µM [falling, partial curve, poor fit] | –
COc1ccccc1C(O)(C(=O)N(NC(C)=O)c1ccccc1)c1ccccc1OC | 35.5 µM [rising, partial curve, poor fit] | –
Fc1ccc(/C=N/NC(=S)Nc2cccnc2)cc1 | 3.98 µM [rising, partial curve, poor fit] | 10 µM [falling, partial curve]
COc1nnc(-c2ccc(N3CCOCC3)c(NC(=O)c3ccccc3)c2)c2ccccc12 | 3.66 µM [rising, full curve, poor fit] | –
CN=C1N(C)C[C@@H]2[C@@H]3C(=O)N(C)C(=O)[C@@H]3[C@](C)(C(=O)OC)N12 | 29.1 µM [rising, single point] | –
Cn1c(N)c(C(=O)COC(=O)c2ccc(Br)o2)c(=O)n(C)c1=O | 6.31 µM [rising, partial curve, poor fit] | –
Cc1oc(-c2cccs2)nc1CS(=O)CC(=O)NCc1ccc2c(c1)OCO2 (stereo not drawn) | 3.98 µM [rising, single point] | –
CN(c1cc(=O)n2ccccc2n1)C1CCCCC1 | 1.12 µM [rising, full curve, poor fit] | –
CCCc1[nH]n(-c2nc3ccccc3s2)c(=O)c1C=NCC(C)C | 23.1 µM [falling, single point] | –
C/C(=N\NC(=O)c1ccccc1)c1ccc(NC(=O)c2cccs2)cc1 | 16.4 µM [falling, partial curve, poor fit] | –
COCc1[nH]nc2c1C(c1c(F)cccc1Cl)C(C#N)=C(N)O2 (stereo not drawn) | 10 µM [falling, partial curve, poor fit] | –
COc1ccc(C(C)C)cc1S(=O)(=O)N1CCN(C)CC1 | 20.6 µM [rising, single point] | –
Cc1[nH]n2cnnc2c(=O)c1Br | 35.5 µM [falling, single point] | –
CCOC(=O)c1cc(-c2ccc(OC)cc2)n(CCC(=O)NCCc2ccc(OCC)c(OCC)c2)c1C | 3.16 µM [rising, full curve, poor fit] | –
CCOC(=O)CCCCCN1C(=O)c2cccc3cccc(c23)C1=O | 7.08 µM [falling, full curve] | –
Cc1nc2c(cc(Oc3ccc(S(=O)(=O)N4CCOCC4)cn3)c3ccsc32)s1 | 35.5 µM [falling, single point] | –
O=C(N/N=C/C(Br)=C\c1ccccc1)c1ccco1 | 35.5 µM [falling, single point] | 11.2 µM [falling, partial curve, poor fit]

Molecules listed so far that have a nitro group on carbon (2):
SMILES | AC50 [1] | AC50 [2]
CCCN1CCC(=NNc2ccc(S(=O)(=O)N(CC)CC)cc2[N+](=O)[O-])CC1 | 2.82 µM [falling, partial curve, poor fit] | –
CN(NC1OC(=O)c2ccccc21)c1ccc(C(F)(F)F)cc1[N+](=O)[O-] (stereo not drawn) | 0.794 µM [rising, partial curve, poor fit] | –
